Data published in PMC12767118.
Changes are numbered by the printed parent chain. Names and notes keep the numbering of the source. No constants are given. Whether binding was seen depends on the method and setting. Binding seen in cells or lysates may run through a third protein. Some entries that bind do so weakly or less than the wild type. For some of these results: Sequences can lack the tags named with a protein. Each block holds one binder with its values, some of them ahead of it.

Chains of the proteins cited; added tags and fusions are not shown.
UniProt O60488: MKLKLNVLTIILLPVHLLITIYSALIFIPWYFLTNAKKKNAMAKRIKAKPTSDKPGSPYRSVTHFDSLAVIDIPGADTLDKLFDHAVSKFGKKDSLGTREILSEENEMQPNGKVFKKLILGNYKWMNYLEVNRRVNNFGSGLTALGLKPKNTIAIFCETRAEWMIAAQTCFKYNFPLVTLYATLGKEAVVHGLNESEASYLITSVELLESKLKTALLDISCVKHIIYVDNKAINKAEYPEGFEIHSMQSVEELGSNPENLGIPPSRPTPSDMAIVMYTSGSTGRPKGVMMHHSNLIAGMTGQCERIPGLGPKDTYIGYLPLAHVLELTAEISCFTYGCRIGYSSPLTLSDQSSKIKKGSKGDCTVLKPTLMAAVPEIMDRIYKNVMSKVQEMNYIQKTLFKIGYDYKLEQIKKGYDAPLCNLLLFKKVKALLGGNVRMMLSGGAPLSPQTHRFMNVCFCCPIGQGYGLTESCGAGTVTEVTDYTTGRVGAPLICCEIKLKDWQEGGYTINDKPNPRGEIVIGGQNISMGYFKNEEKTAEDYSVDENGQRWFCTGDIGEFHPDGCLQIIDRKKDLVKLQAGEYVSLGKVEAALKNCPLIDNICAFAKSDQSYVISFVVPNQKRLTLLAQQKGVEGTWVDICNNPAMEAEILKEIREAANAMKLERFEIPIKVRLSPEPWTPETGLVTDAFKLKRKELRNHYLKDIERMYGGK
UniProt Q9UIJ5: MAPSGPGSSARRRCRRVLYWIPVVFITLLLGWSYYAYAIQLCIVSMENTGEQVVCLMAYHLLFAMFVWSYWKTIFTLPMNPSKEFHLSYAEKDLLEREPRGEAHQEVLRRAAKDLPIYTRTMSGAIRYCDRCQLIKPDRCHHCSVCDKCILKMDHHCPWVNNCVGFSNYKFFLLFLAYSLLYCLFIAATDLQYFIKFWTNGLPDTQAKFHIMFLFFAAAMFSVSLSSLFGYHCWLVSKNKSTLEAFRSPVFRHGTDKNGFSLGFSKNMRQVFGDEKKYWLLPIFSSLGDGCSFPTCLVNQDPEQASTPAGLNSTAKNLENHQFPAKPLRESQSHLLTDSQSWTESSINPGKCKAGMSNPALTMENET

Key:
[1] = molecular target: ACSL4, endogenous (human (endogenous in C4‐2, 22Rv1 and LNCaP)) (UniProt O60488); assay: proximity ligation; Duolink in situ PLA in fixed and permeabilised 22Rv1 cells with the indicated antibodies; for USP19-ACSL4 also after ZDHHC2 knockdown
[2] = molecular target: palmitoyltransferase ZDHHC2, endogenous (human (endogenous in C4‐2, 22Rv1 and LNCaP)) (UniProt Q9UIJ5); assay: as above
[3] = molecular target: ACSL4, endogenous (human (endogenous in C4‐2, 22Rv1 and LNCaP)) (UniProt O60488); assay: co-IP; endogenous proteins; C4‐2, 22Rv1 and LNCaP lysates in RIPA buffer, specific antibodies and magnetic beads overnight at 4 °C, six washes, Western blot; for USP19-ACSL4 also in ZDHHC2-KO cells transfected with ZDHHC2 plasmids, with TTZ1 and MG132, and in enzalutamide-resistant versus -sensitive lines
[4] = molecular target: palmitoyltransferase ZDHHC2, endogenous (human (endogenous in C4‐2, 22Rv1 and LNCaP)) (UniProt Q9UIJ5); assay: as above
[5] = molecular target: recombinant ACSL4 (GST pull‐down assay) (UniProt O60488); assay: pull-down; GST fusion protein (E. coli BL21, pET‐GST) captured overnight at 4 °C on glutathione–agarose beads, then mixed with cell lysate of the target protein overnight at 4 °C; SDS-PAGE; only the target purified
[6] = molecular target: recombinant full‐length ZDHHC2 (GST pull‐down assays) (UniProt Q9UIJ5); assay: as above
[7] = molecular target: ACSL4, endogenous (human (endogenous in C4‐2, 22Rv1 and LNCaP)) (UniProt O60488); assay: co-IP; C4‐2, 22Rv1 and LNCaP cells transfected with the indicated plasmids (USP19 C152S, ZDHHC2) for 24 h, treated with MG132; co-IP and Western blot

binding [1]: binds
binding [2]: binds
binding [3]: binds
binding [4]: binds
B1: ubiquitin carboxyl‐terminal hydrolase 19 (USP19), endogenous (enzyme, UniProt O94966 1-1318)
chain: MSGGASATGPRRGPPGLEDTTSKKKQKDRANQESKDGDPRKETGSRYVAQAGLEPLASGDPSASASHAAGITGSRHRTRLFFPSSSGSASTPQEEQTKEGACEDPHDLLATPTPELLLDWRQSAEEVIVKLRVGVGPLQLEDVDAAFTDTDCVVRFAGGQQWGGVFYAEIKSSCAKVQTRKGSLLHLTLPKKVPMLTWPSLLVEADEQLCIPPLNSQTCLLGSEENLAPLAGEKAVPPGNDPVSPAMVRSRNPGKDDCAKEEMAVAADAATLVDEPESMVNLAFVKNDSYEKGPDSVVVHVYVKEICRDTSRVLFREQDFTLIFQTRDGNFLRLHPGCGPHTTFRWQVKLRNLIEPEQCTFCFTASRIDICLRKRQSQRWGGLEAPAARVGGAKVAVPTGPTPLDSTPPGGAPHPLTGQEEARAVEKDKSKARSEDTGLDSVATRTPMEHVTPKPETHLASPKPTCMVPPMPHSPVSGDSVEEEEEEEKKVCLPGFTGLVNLGNTCFMNSVIQSLSNTRELRDFFHDRSFEAEINYNNPLGTGGRLAIGFAVLLRALWKGTHHAFQPSKLKAIVASKASQFTGYAQHDAQEFMAFLLDGLHEDLNRIQNKPYTETVDSDGRPDEVVAEEAWQRHKMRNDSFIVDLFQGQYKSKLVCPVCAKVSITFDPFLYLPVPLPQKQKVLPVFYFAREPHSKPIKFLVSVSKENSTASEVLDSLSQSVHVKPENLRLAEVIKNRFHRVFLPSHSLDTVSPSDTLLCFELLSSELAKERVVVLEVQQRPQVPSVPISKCAACQRKQQSEDEKLKRCTRCYRVGYCNQLCQKTHWPDHKGLCRPENIGYPFLVSVPASRLTYARLAQLLEGYARYSVSVFQPPFQPGRMALESQSPGCTTLLSTGSLEAGDSERDPIQPPELQLVTPMAEGDTGLPRVWAAPDRGPVPSTSGISSEMLASGPIEVGSLPAGERVSRPEAAVPGYQHPSEAMNAHTPQFFIYKIDSSNREQRLEDKGDTPLELGDDCSLALVWRNNERLQEFVLVASKELECAEDPGSAGEAARAGHFTLDQCLNLFTRPEVLAPEEAWYCPQCKQHREASKQLLLWRLPNVLIVQLKRFSFRSFIWRDKINDLVEFPVRNLDLSKFCIGQKEEQLPSYDLYAVINHYGGMIGGHYTACARLPNDRSSQRSDVGWRLFDDSTVTTVDESQVVTRYAYVLFYRRRNSPVERPPRAGHSEHHPDLGPAAEAAASQASRIWQELEAEEEPVPEGSGPLGPWGPQDWVGPLPRGPTTPDEGCLRYFVLGTVAALVALVLNVFYPLVSQSRWR

binding [5]: binds
binding [6]: binds
B2: recombinant USP19 (GST pull‐down assays) (enzyme, UniProt O94966 1-1318)
chain: B1 chain

binding [7]: binds
B3: HA‐USP19 C152S (enzyme, UniProt O94966 1-1318)
chain: B1 chain with C152S
